# According to PubChem BioAssay AID2685 (National Center for Advancing Translational Sciences (NCATS), 2010):
# Several values for one entry are separate records, joined by “and”; a condition that tells them apart may be missing. Equal values may be shown once. This is one part of the list. The main result of the screen is listed elsewhere. These columns were measured beside it and carry no call. Most of these compounds were active or inconclusive in the main read-out, so they are no random draw. Words in brackets tell the shape of the fitted curve; partial curves, single points and poor fits give uncertain potencies.
# Assay: qHTS Assay for Lipid Storage Modulators in Drosophila S3 Cells;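 as to cell number change: cells counted by Cell Tracker Red CMTPX staining in the red channel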
# Details: BODIPY lipid droplet fluorescence, 18-24 h; for cell number change: measured here: cell count max response, cells fed with added oleic acid
# Method in brief: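 Drosophila S3 cells got compounds at several concentrations plus oleic acid (400 uM solution). Laser-scanning cytometry with 488 nm excitation read lipid droplets at 500-530 nm and cells at 575-640 nm. Percent activity was relative to 20 uM Triacsin C.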
# [1] = measured here: lipid fluorescence (Fed channel) AC50, cells fed with added oleic acid
# [2] = measured here: cell number channel AC50, cells fed with added oleic acid
SMILES,cell number change,AC50 [1],AC50 [2]
CC(C)NC(=O)C(c1ccc(F)cc1)N(Cc1ccco1)C(=O)CCC(=O)Nc1ccccn1 (configuration not stated),4.2%,"0.206 µM [rising, single point]",–
CC(C)N1CC(C(=O)Nc2ccc(S(=O)(=O)N3CCCCC3)cc2)CC1=O (configuration not stated),14.5%,–,–
O=C1C=C(c2ccc3ncccc3c2)C[C@@H](c2ccc3c(c2)OCO3)C1,-26.9%,"0.651 µM [rising, single point]",–
Cc1ccc(OCc2nnc(SCC(=O)Nc3cc(C)on3)n2C)cc1,-34%,"25.9 µM [falling, single point]","0.731 µM [falling, full curve]"
CCOC(=O)c1c(NC(=O)CSc2ncccn2)sc(C(=O)NC)c1C,8.5%,"0.116 µM [rising, full curve]","0.164 µM [rising, full curve, poor fit]"
COc1ccc(NS(=O)(=O)c2cccc3nsnc23)cc1OC,–,"0.291 µM [rising, full curve]","3.26 µM [rising, partial curve]"
CCc1cccc(C)c1NC(=O)c1ccc2c(c1)CCN2S(C)(=O)=O,20.6%,"11.6 µM [rising, partial curve, poor fit]",–
Cc1noc(C)c1CN1C(=O)NC(Cc2ccccc2)(Cc2ccccc2)C1=O,5.94%,"8.2 µM [rising, partial curve]",–
O=C(c1ccc(Cl)cc1)C1CCCN(Cc2ccc(Oc3ncccn3)cc2)C1 (configuration not stated),-7.51%,"13 µM [falling, partial curve, poor fit]",–
COc1ccc(C(=O)Nc2cc(OC)c(Cl)cc2Cl)cc1,8.21%,–,"0.00517 µM [falling, full curve, poor fit]"
CCN(CC)S(=O)(=O)c1cccc(C(=O)N[C@H](C(=O)OCC(=O)Nc2ccccc2)C(C)C)c1,36.2%,–,–
CC(C)CC(C(=O)OCC(=O)c1c(N)n(C)c(=O)n(C)c1=O)N1C(=O)C2CC=CCC2C1=O (configuration not stated),4.64%,"0.517 µM [falling, full curve, poor fit]",–
CNC(=O)/C(=C\c1ccc2c(c1)OCO2)NC(=O)c1ccc(Br)cc1,4.6%,"0.651 µM [rising, partial curve, poor fit]",–
COc1ccc(-c2cc3nc(C)cc(-c4ccc(OC)cc4)n3n2)cc1,-14.2%,–,–
CC(C)[C@H](NC(=O)NCCc1ccccc1)C(=O)O,-92.2%,"20.6 µM [falling, partial curve]","10.3 µM [falling, partial curve, poor fit]"
Cc1[nH]c(=O)[nH]c(=O)c1Cc1cccc2ccccc12,-19.2%,"0.92 µM [falling, full curve, poor fit]",–
CN(CC(=O)Nc1ccc(F)cc1)C(=O)COc1ccccc1Cc1ccccc1,-1.59%,"3.66 µM [rising, single point]",–
CN(C)/N=C/c1ccc(Sc2ccccc2[N+](=O)[O-])o1,29.8%,"29.1 µM [rising, single point]",–
CCOC(=O)CCc1c(C)c2ccc(OCC(=O)N(CC)CC)c(C)c2oc1=O,–,"0.103 µM [falling, full curve, poor fit]",–

# Among those listed so far, these have a Cl atom:
SMILES,cell number change,AC50 [1],AC50 [2]
O=C(c1ccc(Cl)cc1)C1CCCN(Cc2ccc(Oc3ncccn3)cc2)C1 (configuration not stated),-7.51%,"13 µM [falling, partial curve, poor fit]",–
COc1ccc(C(=O)Nc2cc(OC)c(Cl)cc2Cl)cc1,8.21%,–,"0.00517 µM [falling, full curve, poor fit]"

# (next part)

SMILES,cell number change,AC50 [1],AC50 [2]
CC1Cn2c(nnc2-c2ccccc2O)S1 (configuration not stated),29.2%,"2.91 µM [rising, partial curve, poor fit]",–
CCOc1ccc2ccccc2c1/C=N/NC(=O)CNC(=O)c1ccccc1O,-14.5%,–,–
O=C(CCCCCNC(=O)c1ccccc1)N/N=C/c1ccccc1O,–,"11.6 µM [falling, partial curve]",–
CS(=O)(=O)Nc1ccc(C(=O)NCCc2ccccc2)cc1,126%,"2.31 µM [rising, partial curve]","23.1 µM [rising, partial curve]"
CCC(C)NC(=O)c1ccc(CNS(=O)(=O)c2ccc3c(c2)C(C)(C)C(=O)N3C)cc1 (configuration not stated),27.2%,–,–
Cc1ccc(-c2noc(-c3ccccc3C(=O)N3CCCC3)n2)cc1,17.5%,"23.1 µM [rising, single point]",–
CCCCc1ncc(CN2CCC(n3nccc3NC(=O)c3ccccc3Cl)CC2)[nH]1,7.03%,"0.461 µM [rising, single point]",–
NC(=O)Nn1c(CCC(=O)O)ccc1-c1ccc(Br)cc1,-0.331%,"32.6 µM [falling, partial curve, poor fit]",–
O=C(CSCc1ccccc1)N1CCc2ccccc21,42.4%,–,"3.66 µM [rising, full curve]"
Cc1ccc(C(C)C)c(OCC(=O)NS(=O)(=O)c2ccc(Cl)cc2)c1,-17.3%,"29.1 µM [falling, single point]",–
COc1ccc(CN(CC(=O)NCC2CCCO2)C(=O)CCC(=O)Nc2cc(C)ccn2)cc1 (configuration not stated),0.287%,–,–
COc1ccccc1-n1c(-c2ccccc2)c[n+]2c1CCc1ccccc1-2,-124% and -58.2%,"29.1 µM [falling, partial curve] and 20.6 µM [falling, partial curve, poor fit]","5.8 µM [falling, full curve] and 20.6 µM [falling, partial curve, poor fit]"
Cc1c(Cl)cccc1NC(=S)N1CCN(c2ccc([N+](=O)[O-])cn2)CC1,–,"2.59 µM [rising, partial curve]","2.06 µM [rising, partial curve]"
COC(=O)c1ccccc1OC(=O)c1cccnc1,32.2%,"29.1 µM [falling, single point]",–
CC(C)(C)c1ccc(OCc2ccc(C(=O)NCc3cccnc3)o2)cc1,-58.4%,"29.1 µM [falling, single point]","29.1 µM [falling, single point]"
COc1cc(OC)cc(OCC(O)Cn2ccnc2)c1 (configuration not stated),-7.39%,–,–
NC(=O)c1ccccc1NS(=O)(=O)c1ccc2c(c1)OCCO2,7.53%,–,–
CCn1nc(C)cc1C(=O)N1CCCC(C(=O)c2ccc3ccccc3c2)C1 (configuration not stated),-51.9%,"4.61 µM [falling, full curve]","11.6 µM [falling, partial curve]"
COc1ccccc1CNC(=O)CN1C(=O)NC(C)(c2ccc(C(C)(C)C)cc2)C1=O (configuration not stated),-16.2%,–,–

SMILES,cell number change,AC50 [1],AC50 [2]
O=C(C1CC1)N1CCCC(c2ccc(Cl)cc2)=N1,-19.8%,–,–
COCc1cc(C)nc(Nc2cc(C)ccc2C)c1C#N,-5.88%,–,–
C=CCOc1ccc(CN(C)CC(O)COc2cccc3ccccc23)cc1 (configuration not stated),-1.21%,"29.1 µM [rising, single point]",–
CCC(CC)c1nnc(NC(=O)c2nn(C)c(=O)c3ccccc23)s1,-34.7%,"29.1 µM [falling, single point]","0.731 µM [falling, full curve, poor fit]"
Cc1nn(-c2ccccc2)c2c1P(=O)(O)/C(=C1\N(C)c3ccccc3C1(C)C)C=N2,58%,"29.1 µM [rising, single point]","10.3 µM [rising, single point]"
COc1ccc(-c2cccc(C3CC=CC4C3C(=O)N(Cc3ccccc3)C4c3ccc(C(F)(F)F)cc3)c2)cc1 (configuration not stated),2.46%,"2.06 µM [rising, full curve, poor fit]",–
CCCC1(c2ccccc2)NC(=O)N(CC(=O)Nc2cc(C)ccc2OC)C1=O (configuration not stated),0.901%,–,–
Cc1cc(C(=O)OCC(=O)Nc2ccccc2C)c(C)o1,4.91%,"3.66 µM [rising, partial curve, poor fit]","3.66 µM [rising, single point]"
O=C(NC1CCN(S(=O)(=O)c2ccc(F)cc2)CC1)c1ccco1,11.5%,–,–
O=C(Nc1ccc(Oc2ncnc3cc(Cl)ccc23)nc1)c1cccs1,–,"4.61 µM [rising, partial curve]","2.31 µM [rising, partial curve, poor fit]"
c1ccc(Nc2nc3ccccc3[nH]2)nc1,-35.4%,–,"32.6 µM [falling, single point]"
CCOc1ccc(S(=O)(=O)Nc2nc3ccccc3nc2-n2ccc(=NC(=O)c3cccs3)cc2)cc1,14.8%,"6.51 µM [falling, single point]",–
CCOC(=O)C1=C(CNCc2ccccc2Cl)NC(=O)NC1c1ccc2c(c1)OCO2 (configuration not stated),-27.9%,"6.51 µM [rising, partial curve]",–
C#CCOCCOCCOCCNc1nc(N2CCN(C(=O)CCCCCCCCCCNC(=O)[C@H]([C@@H](C)CC)n3cc(CCCCN=C(N)N)nn3)CC2)nc(N2CCN(C(=O)CCCCCCCCCCNC(=O)[C@H](CCCCN)n3cc(C)nn3)CC2)n1,-76.5%,"0.0164 µM [falling, partial curve, poor fit]","18.4 µM [falling, partial curve]"
N#Cc1nc(Nc2cccc(Cl)c2)c2ncn(C3CCCC3)c2n1,-30.2%,"0.58 µM [rising, partial curve]","9.2 µM [falling, single point]"
CC(=O)c1cc2c(cc1NC(=O)c1ccc(C)cc1)OCO2,17.4%,"0.013 µM [rising, full curve, poor fit]",–
CC(C)N(Cc1nc(-c2ccc(Cl)cc2)no1)C(=O)C(c1ccccc1)c1ccccc1,41%,"23.1 µM [rising, partial curve]","5.8 µM [rising, full curve]"
N#Cc1c(-c2ccccc2)nc(N2CCOCC2)[nH]c1=O,-4.78%,"0.731 µM [rising, single point]",–
CC(NC(=O)c1c(O)c2ccccc2[nH]c1=O)c1ccccc1 (configuration not stated),-4.99%,"16.4 µM [rising, single point]",–
